Results on two molecules are retold here after patent publication US20110201688A1, “N,N'-DI-P-BROMOPHENYL GUANIDINE TREATMENT FOR STROKE AT DELAYED TIMEPOINTS” (UNIVERSITY OF SOUTH FLORIDA, priority 2008, published 2011).

In this series the test system is cortical neurons. The experiment in a line: Inhibition of [Ca2+]i increases evoked by acidosis (pH 6.0) in cortical neurons. The class given is cell-based, rat. Conditions: acidosis pH 6.0, cortical neurons, n>50. As for the experimental part:
Concentration-response relationship for p-Br-DPG and DTG inhibition of [Ca^2+]i increases evoked by acidosis (pH 6.0).
The effects of sigma receptors on ischemia-induced changes in intracellular calcium concentrations were studied in cultured cortical neurons from embryonic (E18) rats. Dams were euthanatized by decapitation, uterus removed, and embryos dissected out and placed in isotonic buffer containing 137 mM NaCl, 5 mM KCl, 0.2 mM NaH2PO4, 0.2 mM KH2PO4, 5.5 mM glucose, 6 mM sucrose (pH 7.4 with NaOH). Cortex were excised and minced, and tissue digested in isotonic buffer containing 0.25% trypsin/EDTA for 10 min at 37° C. and added to 3× volume of high glucose culture media (Dulbecco's Modified Eagle Media; Invitrogen, Inc., Carlsbad, Calif.), 10% (v/v) fetal calf serum, 100 U/ml penicillin and 0.1 mg/ml streptomycin. Cells were counted on a hemocytometer, plated (0.5×10^6 cells) on 18 mm coverslips coated with poly-1-lysine, and incubated at 37° C. under a 95% air, 5% CO2 atmosphere. After 24 hr the media was replaced with Neurobasal (Invitrogen, Inc., Carlsbad, Calif.) medium supplemented with B27 (Invitrogen, Inc., Carlsbad, Calif.) and 0.5 mM 1-glutamine to limit astrocyte proliferation in the cultures. Cells were used for studies after 14-21 days in culture. […]

Take `Cc1ccccc1NC(=N)Nc1ccccc1C` [DTG, N,N′-di-o-tolyl guanidine, reference compound]: the “Hill coefficient for inhibition of [Ca2+]i increases evoked by acidosis” value is 0.9. As to `N=C(Nc1ccc(Br)cc1)Nc1ccc(Br)cc1` [p-Br-DPG, N,N′-di-p-bromophenyl guanidine], the “Hill coefficient for inhibition of [Ca2+]i increases evoked by acidosis” value turned out to be 1.2.
